Assay results reported in patent US20110311544A1.
Results are given in words; binding and its absence hold for the method and conditions named. Some binding calls cover weakened binding; strength is not graded here.

Legend:
[1] = biological target: CD71 (transferrin receptor) on human tumour cell lines (human) (UniProt P02786); assay: cross-blocking on A375 cells, flow cytometry
[2] = biological target: CD71 (transferrin receptor) on human tumour cell lines (human) (UniProt P02786); assay: quantitative indirect immunofluorescence flow cytometry (Qifikit) on cell lines
[3] = biological target: CD71 (transferrin receptor) on human tumour cell lines (human) (UniProt P02786); assay: quantitative flow cytometry on A375 cells
[4] = biological target: CD71 (transferrin receptor) on human tumour cell lines (human) (UniProt P02786); assay: tissue distribution and immunoprecipitation

- binding [1]: binds
- binding [2]: binds
- binding [3]: binds
- binding [4]: binds
B1: anti-CD71 mAb BA120g (antibody, V domains shown)
VH: EVQLQQSGTVLARPGASVKMSCKASGYSFTIYWIHWVKQRPGQGLEWIATIYPGNSDIIYNQKFKGKAKLTAVTSASTAYMELSSLTNEASAVYYCTRQGYDYYAMDYWGQGTSVTVSS
VL: DVQITQSPSYLAASPGETIIINCRASKSISKYLAWYQEKPGKTNKLLIYSGSTLQSGIPSRFSGSGSGTDFTLTISSLEPQDFAMYYCQQHNEYPWTFGGGTKLEIKR
